Results are given in words; binding and its absence hold for the method and conditions named. In cells and extracts the contact can be indirect. A yes stands for co-enrichment or nearness to the bait. Other partners may have been found. One block for each binder: values may come before it.
Assays:
[1] = target: OTX2 homeoprotein (mouse (endogenous in adult mouse brain tissue)) (UniProt P80206); assay: affinity purification with mass spectrometry; anti-OTX2 (ab21990) coupled to magnetic beads, lysate of pooled LV and 4V choroid plexus from four 3-month-old mice; 100 mM Tris pH 7.5, 1 mM EDTA, 100 mM NaCl, 1% NP40, 1 mM MgCl2, benzonase; 4 °C overnight; IgG co-IP as control; nano-LC-MS/MS; N = 3
[2] = target: OTX2 homeoprotein (mouse (endogenous in adult mouse brain tissue)) (UniProt P80206); assay: affinity purification with mass spectrometry; anti-OTX2 (ab21990) coupled to magnetic beads, lysates of SVZ, RMS and visual cortex pooled from ten 3-month-old wildtype mice; 20 mM Tris pH 8, 120 mM NaCl, 1% NP40, 1 mM MgCl2, 5% glycerol, benzonase; IgG co-IP as control; nano-LC-MS/MS; N = 1; hits common to the three structures

Sequences of proteins named here, by UniProt entry; tags and fusion partners are left off.
UniProt P80206: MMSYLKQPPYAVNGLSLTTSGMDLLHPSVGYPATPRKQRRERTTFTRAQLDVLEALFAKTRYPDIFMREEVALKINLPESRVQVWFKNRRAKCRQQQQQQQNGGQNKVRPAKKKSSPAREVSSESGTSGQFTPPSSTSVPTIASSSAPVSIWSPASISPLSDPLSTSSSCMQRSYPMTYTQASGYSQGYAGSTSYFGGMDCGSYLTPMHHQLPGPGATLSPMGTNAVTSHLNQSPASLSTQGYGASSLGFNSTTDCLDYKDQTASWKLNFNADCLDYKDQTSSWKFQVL

binding [1]: binds
binding [2]: binds
B1: ACOT11 (protein, UniProt Q8VHQ9 21-594)
chain: TSRKSISHPESGDPPTMAEGEGYRNPTEVQMSQLVLPCHTNHRGELSIGQLLKWIDTTACLSAERHAGCPCVTASMDDIYFDHTISVGQVVNIKAKVNRAFNSSMEVGIQVVSEDLCSEKQWSVCKALATFVAHRELSKVKLKQVIPLTEEEKTEHGVAAERRRMRLVYADTIKDLLTHCVIQDDLDKDCSNMVPAEKTRVESVELVLPPHANHQGNTFGGQIMAWMENVATIAASRLCHAHPTLKAIEMFHFRGPSQVGDRLVLKAIVNNAFKHSMEVGVCVEAYRQEAETQRRHINSAFMTFVVLDKDDQPQKLPWIRPQPGEGERRYREASARKKIRLDRKYLVSCKQAEVALSVPWDPSNQVYLSYYNVSSLKTLMAKDNWVLSVEISEVRLYILEEDFLSFHLEMVVNVDAAQVFQLLSDLRRRPEWDKHYRSVELVQQVDEDDAIYHVISPALSGNTKPQDFVILASRRKPCDNGDPYVIALRSVTLPTHHETPEYQRGETLCSGFCLWREGDQMTKVSYYNQATPGFLNYVTTNVSGLSSEFYNTFKACESFLLDNRNDLAPSLQTL

binding [1]: binds
binding [2]: binds
B2: VAC14 (protein, UniProt Q80WQ2 1-782)
chain: MNPEKDFAPLTPNIVRALNDKLYEKRKVAALEIEKLVRDFVAQNNTMQIKHVIQTLSQEFALSQHPHSRKGGLIGLAACSIALGKDSGLYLKELIEPVLTCFNDADSRLRYYACEALYNIVKVARGAVLPHFNVLFDGLSKLAADPDPNVKSGSELLDRLLKDIVTESSKFDLVSFIPLLRERIYSNNQYARQFIISWILVLVSVPDINLLDYLPEILDGLFQILGDNGKEIRKMCEVVLGEFLKEIKKNPSSVKFAEMANILVIHCQTTDDLIQLTAMCWMREFIQLAGRVMLPYSSGILTAVLPCLAYDDRKKSIKEVANVCNQSLMKLVTPEDDEPDEPKSVAQKQTEPNPEDSLPKQEGTASGGPGSCDSSFGSGINVFTSANTDRAPVTLHLDGIVQVLNCHLSDTTIGMMTRIAVLKWLYHLYIKTPRKMFRHTDSLFPILLQTLSDESDEVVLKDLEVLAEIASSPAGQTDDPGAPDGPDLRVNHSELQVPTSGRANLLNPPSTKGLEGSPSTPTMNSYFYKFMINLLQTFSSERKLLEARGPFIIRQLCLLLNAENIFHSMADILLREEDLKFASTMVHTLNTILLTSTELFQLRNQLKDLQTPESQNLFCCLYRSWCHNPVTTVSLCFLTQNYRHAYDLIQKFGDLEVTVDFLTEVDKLVQLIECPIFTYLRLQLLDVKNNPYLIKALYGLLMLLPQSSAFQLLSHRLQCVPNPELLQTEDCLKAAPKSQKGDSPSIDYTELLQHFEKVQKQHLEVRHQRSGRGDHLDRRVIL
